Source: PubChem BioAssay AID1671195 (Yale University, 2021)

- Assay: 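Knockdowns that increase or decrease uptake of fluorescent LDL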 (primary screen)
- System: human Huh7 hepatoma cells
- Knock-down reagent: siRNA pool against human genes, 18 nM
- Timing: about 2 to 2.5 days of knockdown, then 8 h LDL uptake
- Challenge: DiI-labelled LDL at 30 µg/ml for 8 h, in lipoprotein-deficient serum medium
- Measured: 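Fluorescent LDL signal imaged in cells, scaled to the plate median, robust z-score for each replicate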
- Scale: robust z-score: higher = more LDL uptake after knockdown
- Hit rule: 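a gene counts as active if at least two replicate z-scores exceed ±2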
The deposit covers about 22,000 reagents; this is a random part of them. In the full data, about 1,510 (6.9%) were called active. 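Active includes knockdowns raising or lowering LDL uptake; positive z-scores mean more uptake, negative mean less.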 Entries without a mark were called inactive.

no.	target	robust z-score, replicate 1	robust z-score, replicate 2	robust z-score, replicate 3
1	CCDC6	-0.814	-0.768	-1.3
2	SIMC1P1	2.48 (active)	3.09	2.87
3	MICOS10	-0.278	-0.00856	0.319
4	TARM1	0.528	0.487	0.642
5	MAGEB5	0.0911	-0.136	0.703
6	LOC441163 (retired record)	-0.509	-0.627	-0.875
7	CLPTM1	-0.899	0.0642	-0.352
8	LOC400605 (retired record)	-0.669	-1.02	-0.761
9	LOC442376 (retired record)	-2.25 (active)	-2.1	-2.2
10	TGFBR1	0.733	0.794	0.76
11	ADGRV1	-1.16	-1.45	-1.12
12	EGFL7	-0.777	1.19	-1.36
13	VIPR2	-0.437	-1.31	-0.774
14	EML5	-1.08	-1.18	-0.51
15	LOC389702 (retired record)	-0.542	-0.437	0.0446

Just “robust z-score, replicate 1”, for 3 of the entries above:
LOC441163 (retired record)	-0.509
CLPTM1	-0.899
LOC400605 (retired record)	-0.669

The results go on:
no.	target	robust z-score, replicate 1	robust z-score, replicate 2	robust z-score, replicate 3
16	YPEL3	-0.353	-0.0134	-0.242
17	KIF14	-0.805	-0.0452	0.0959
18	APOA1	0.555	0.892	0.749
19	KIAA1191	6.31 (active)	5.02	7.27
20	FAM114A2	-0.359	0.223	-0.773
21	ZNF691	0.475	-0.0147	0.0891
22	RBM8A	-0.156	0.914	-0.331
23	LINC00698	-0.913	-0.869	-0.695
24	CBL	-0.871	-0.912	-0.929
25	LOC401065 (retired record)	1.26	0.734	1.25
26	EBPL	1.31	0.909	0.102
27	MBNL1-AS1	1.59	1.14	0.84
28	LENG1	-0.565	-0.327	-0.38
29	SNAP23	-0.679	-0.955	-1.09
30	SEPTIN7P9	1.63	1.8	2.41
31	SLC18B1	1.04	1.01	0.247
32	NEDD1	1.78	1.52	0.418
33	AARS2	0.376	-0.429	-0.0423
34	POLE2	-0.453	-1.26	-0.998
35	LOC392556 (retired record)	-0.729	1.25	1.06
36	MCC	-0.524	-0.351	-0.254
37	LOC441682 (retired record)	0.445	0.187	0.751
38	CALD1	-0.975	0.0152	-1.06
39	U2AF2	1.62	1.24	1.62
40	DNAJC10	-1.38	-1.13	-1.75
41	CCDC138	-0.113	-1.07	-1.21
42	ADTRP	0.376	1.11	0.352
43	RORB	-0.472	-1.02	-0.122
44	TM4SF4	3.31	0.514	0.609
45	THAP8	-0.445	0.0669	-0.333
46	SAR1AP3	-1.29	-1.32	-1.17
